Here are results for one compound from US20240325469A1, “COMPOSITION FOR PREVENTION OR TREATMENT OF COGNITIVE DYSFUNCTION AND INTESTINAL DYSFUNCTION, COMPRISING LACTOBACILLUS PARACASEI NK112, CUSCUTA AUSTRALIS EXTRACT, AND CUSCUTA JAPONICA EXTRACT” (MTHERA PHARMA CO., LTD., priority 2021, published 2024).

The assay has as its system brain-derived neurotrophic factor (BDNF). Kind of assay: BDNF expression in Escherichia coli-induced model mice (immunoblotting). The conditions noted are these: E. coli model mice; donepezil 5 mg/kg. Type of assay: in vivo, mouse. In general terms: In western blotting, separated proteins are transferred to a membrane and probed.

For the compound `COc1cc2c(cc1OC)C(=O)C(CC1CCN(Cc3ccccc3)CC1)C2` (stereo not shown) [Donepezil, donepezil], the “Intensity of BDNF/β-actin” value amounted to 0.35.
